No constants are given. Whether binding was seen depends on the method and setting. In cells and extracts the contact can be indirect. Some results given as binding are weak or reduced against the parent protein; the word gives no strength.
Assays:
[1] = target: PERIOD (PER) protein, Drosophila, expressed in S2 cells from hs-per (Drosophila) (UniProt P07663); experiment: summary of the GST pull-down and of the co-immunoprecipitation from S2 cells
[2] = target: GST-PER 1-365 fusion protein (Drosophila) (UniProt P07663); experiment: GST pull-down, 35S-labeled in vitro translated DBT, SDS-PAGE and autoradiography (FIG. 13A)
[3] = target: GST-PER 1-365 fusion protein (Drosophila) (UniProt P07663); experiment: GST pull-down on glutathione agarose beads, 35S-labeled in vitro translated DBT, SDS-PAGE and autoradiography
[4] = target: GST-PER 1-640 fusion protein (Drosophila) (UniProt P07663); experiment: as above
[5] = target: PERIOD (PER) protein, Drosophila, expressed in S2 cells from hs-per (Drosophila) (UniProt P07663); experiment: co-immunoprecipitation with anti-GFP antibodies from S2 cell extracts, PER detected by Western analysis
[6] = target: PERIOD (PER) protein, Drosophila, expressed in S2 cells from hs-per (Drosophila) (UniProt P07663); experiment: co-immunoprecipitation with anti-GFP antibodies from S2 cells, PER detected by Western analysis (FIG. 13B-13C)

By UniProt entry, the sequences of proteins in these tests, tags left out. Where a name states a change or a piece, a line headed by the entry shows the natural chain unless it says otherwise.
UniProt O76324: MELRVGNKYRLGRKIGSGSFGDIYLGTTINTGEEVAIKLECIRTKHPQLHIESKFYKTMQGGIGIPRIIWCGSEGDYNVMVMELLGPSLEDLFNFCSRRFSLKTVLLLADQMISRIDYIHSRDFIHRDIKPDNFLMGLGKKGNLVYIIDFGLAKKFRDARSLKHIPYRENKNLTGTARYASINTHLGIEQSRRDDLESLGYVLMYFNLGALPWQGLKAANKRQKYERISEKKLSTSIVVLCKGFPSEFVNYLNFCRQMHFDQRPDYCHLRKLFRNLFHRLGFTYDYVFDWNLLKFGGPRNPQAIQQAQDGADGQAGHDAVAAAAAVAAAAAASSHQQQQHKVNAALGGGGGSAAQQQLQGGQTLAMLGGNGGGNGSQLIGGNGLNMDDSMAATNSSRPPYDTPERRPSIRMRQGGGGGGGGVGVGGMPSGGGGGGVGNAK

Row | binding [1] | binding [2] | binding [3] | binding [4] | binding [5] | binding [6] | Substance
1 | binds | binds | binds | binds |  |  | DOUBLETIME protein (DBT), Drosophila, in vitro translated from dbt cDNA P12, 35S-labeled (from UniProt O76324 1-440) (enzyme)
2 |  |  |  |  | binds | binds | Green Fluorescent Protein (GFP)-DBT fusion protein expressed in S2 Drosophila cells (from UniProt O76324 1-440)

— patent US6476188
